The list shows a part of the results. Repeats in this data set agree poorly, so a single value says little.
Test system: MDA-MB-468
Assay: phospho-S6 immunofluorescence (DAPI-normalised), per-plate z-score; higher = higher phospho-S6 signal (less pathway suppression)
Settings: 24 h
Protocol: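 GPCR-targeted compound library (MedChemExpress HY-L006) tested on MDA-MB-468 PTEN-null TNBC cells in 384-well plates at 0.1, 1 or 10 uM, combined with vehicle, GDC0941 450 nM or lapatinib 1 uM, for 24 h. Phospho-S6 (S240/244) immunofluorescence normalised to DAPI and expressed as a per-plate z-score; values are the mean of biological triplicates.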

[1] = compound 0.1 µM, co-treatment: GDC0941 450 nM
[2] = compound 0.1 µM, co-treatment: lapatinib 1 uM
[3] = compound 0.1 µM, co-treatment: vehicle
[4] = compound 1 µM, co-treatment: GDC0941 450 nM
[5] = compound 1 µM, co-treatment: lapatinib 1 uM
[6] = compound 1 µM, co-treatment: vehicle
[7] = compound 10 µM, co-treatment: GDC0941 450 nM
[8] = compound 10 µM, co-treatment: lapatinib 1 uM
[9] = compound 10 µM, co-treatment: vehicle

Compound | phospho-S6 immunofluorescence (z-score) [1] | phospho-S6 immunofluorescence (z-score) [2] | phospho-S6 immunofluorescence (z-score) [3] | phospho-S6 immunofluorescence (z-score) [4] | phospho-S6 immunofluorescence (z-score) [5] | phospho-S6 immunofluorescence (z-score) [6] | phospho-S6 immunofluorescence (z-score) [7] | phospho-S6 immunofluorescence (z-score) [8] | phospho-S6 immunofluorescence (z-score) [9]
CC(C)=CCC[C@](C)(O)[C@H]1CC[C@]2(C)[C@@H]1[C@H](O)C[C@@H]1[C@@]3(C)CC[C@H](O)C(C)(C)[C@@H]3[C@@H](O)C[C@]12C [(20S)-Protopanaxatriol] | 0.57 | 0.58 | 0.72 | 0.3 | -0.55 | 0.16 | -1.71 | -2.12 | -0.03
CCc1cc(/C(C)=N/OCc2ccc(C3CCCCC3)c(C(F)(F)F)c2)ccc1CN1CC(C(=O)O)C1 [Siponimod] | 1.22 | 1.11 | 0.32 | 0.98 | 1.09 | 0.51 | -0.49 | 0.38 | 0.15
Nc1ncnc2c1ncn2C1CCCO1 (stereo unspecified) | -1.06 | -0.57 | 1.17 | -0.75 | -0.22 | -1.25 | 0.45 | -0.67 | -0.21
CC[C@H](NC(=O)c1c(C)c(-c2ccccc2)nc2ccccc12)c1ccccc1 | -0.97 | -0.8 | -0.49 | -1.97 | -2.56 | 0.14 | -4.55 | -3.25 | -1.64

— the supplement of paper PMC7411640
